The source of these data is publication PMC7819943, “Rice protein-binding microarrays: a tool to detect cis-acting elements near promoter regions in rice”.

By UniProt entry, the sequences of proteins in these tests, tags left out.
UniProt Q0JBA9, entry or part of it: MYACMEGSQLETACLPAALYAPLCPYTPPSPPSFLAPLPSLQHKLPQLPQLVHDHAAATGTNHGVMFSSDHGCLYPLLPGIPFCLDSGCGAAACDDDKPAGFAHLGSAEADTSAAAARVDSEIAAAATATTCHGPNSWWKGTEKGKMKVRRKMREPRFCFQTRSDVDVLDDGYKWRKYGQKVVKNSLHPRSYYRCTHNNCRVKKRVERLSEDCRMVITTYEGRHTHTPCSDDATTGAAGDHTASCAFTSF

The list shows a part of the results.

This assay deals with OsWRKY34 (Oryza sativa, UniProt Q0JBA9 1-250). The assay is described as follows: protein-binding microarray (RPBM); PBS, 2% BSA, 51.3 ng/ul salmon testes DNA, 50 uM zinc acetate, 200 nM TF, 25 C, 1 h; high values mean tight binding. The conditions noted are these: protein: recombinant; tags: N-terminal polyhistidine and DsRed monomer fusion (pET32a); label: CyDye5-dUTP incorporated in the synthesized complementary strand; 3' TTTTT single-stranded linker to array surface; dsDNA, one strand shown. An outline of the steps:
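Using Ni–NTA, transcription factors fused N-terminally to polyhistidine and DsRed were purified after expression in E. coli BL21-CodonPlus. These were incubated at 200 nM with a blocked, double-stranded custom Agilent array for 1 h at 25 °C in a buffer containing 50 µM zinc acetate, and the array was washed. The binding signal is per-feature fluorescence intensity (arbitrary units) on an Axon 4000B scanner.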
With “CGTTGGGCTCAAGGGGAGGGATATCTATCTAACAGTAACACGGAGTCACCTAGTGCAG”, the binding signal was 9730 fluorescence intensity (a.u.).

As to “CCCGCTTGCATCCCTAGACATGATCCATCCACCTTCTTATCGGAGTCACCTAGTGCAG”, the binding signal is 9860 fluorescence intensity (a.u.).

“AAATTGCCCTTGTGACCATTTAGTTGACTTGTGTGGAGGACGGAGTCACCTAGTGCAG”: the binding signal is 8080 fluorescence intensity (a.u.).

On to “GTTGTGGGTTTTCGTATTTAATGTTTGACTGTCTATTTTACGGAGTCACCTAGTGCAG”, for which the binding signal was 17300 fluorescence intensity (a.u.).

Turning to “CAATAGTCACGGGTGTATCTGTGTCCTTGTGGGTGTTTATCGGAGTCACCTAGTGCAG”, the binding signal is 10800 fluorescence intensity (a.u.).

For the sequence “TGCATTTGTCTAGGGCCTGGTTTAGTTCCTAACTTTTTTTCGGAGTCACCTAGTGCAG”, the binding signal was 11800 fluorescence intensity (a.u.).

In the case of “TGAATATGCTGCCCATTGCACAAGATTGGGCGAGGGAGGGCGGAGTCACCTAGTGCAG”, the binding signal is 8700 fluorescence intensity (a.u.).

On to “GCCATTAGCGCTCCACGTGTCCTCTTAGGCACTTCACCAACGGAGTCACCTAGTGCAG”, for which the binding signal is 8560 fluorescence intensity (a.u.).

On to “AGCTGAACTAATGCATCACCCAGTAGTTATCCCATGCTCCCGGAGTCACCTAGTGCAG”, for which the binding signal is 9150 fluorescence intensity (a.u.).

Take “TATAACTCATCATCTATTGCCATGTGCTAACTTTTTCATCCGGAGTCACCTAGTGCAG”: the binding signal is 13100 fluorescence intensity (a.u.).

On to “GTGTGAATGACTAATGGGTCCCACTCATATTTTTTAATTCCGGAGTCACCTAGTGCAG”, for which the binding signal was 8620 fluorescence intensity (a.u.).

Take “ACAAACTAGCGCCTCCATCTCTCACTGGCAGCCGGGCCCCCGGAGTCACCTAGTGCAG”: the binding signal is 8270 fluorescence intensity (a.u.).

As to “GACTGCCTCCGCAACGGCGCGTCCACGATCCCACGTTCCCCGGAGTCACCTAGTGCAG”, the binding signal is 11000 fluorescence intensity (a.u.).

For the sequence “TTGACCTCTTCGCTTATCCTCTACACCCGTCTCGATCTTTCGGAGTCACCTAGTGCAG”, the binding signal is 11400 fluorescence intensity (a.u.).

Regarding “GTTAGCATCAGCCTAACACCTGCCCATTTCGTCCCTTTTTCGGAGTCACCTAGTGCAG”, the binding signal was 13000 fluorescence intensity (a.u.).

On to “GAGGTCATACTTTTTAATTCGATGACCTTGTATGCATAAACGGAGTCACCTAGTGCAG”, for which the binding signal was 8260 fluorescence intensity (a.u.).

“GGTACAGTACGCTGGATTGGCAGTTCTATCTATATTGTACCGGAGTCACCTAGTGCAG”: the binding signal was 8930 fluorescence intensity (a.u.).

With “ACATGTTTGACCATTCGTCTTATTCAAAAATTTTATGCAACGGAGTCACCTAGTGCAG”, the binding signal was 10100 fluorescence intensity (a.u.).

Consider “CCCACAGGTCCATTCACCCAGCTCAGCACAGCATCCTATCCGGAGTCACCTAGTGCAG”, for which the binding signal was 8490 fluorescence intensity (a.u.).

As to “GGCCATCTGCTACCAGCTCGCGTTCTTAACTCCTCCCCTACGGAGTCACCTAGTGCAG”, the binding signal was 8780 fluorescence intensity (a.u.).

For “CCCACCACTGCGAGAACCAAACAGATCGAGATACCTCTTTCGGAGTCACCTAGTGCAG”, the binding signal is 9150 fluorescence intensity (a.u.).

“GTTGTGTGTGTATGATAGGTTGATGTGATGGAAAAGGACCCGGAGTCACCTAGTGCAG”: the binding signal is 9360 fluorescence intensity (a.u.).

In the case of “CTCAAAAACTCTGTGCTTTCAAGGCATTTTCATTAGCGCCCGGAGTCACCTAGTGCAG”, the binding signal is 8040 fluorescence intensity (a.u.).

On to “TGTTCAGTACTACTTATATTTTGTTTCTTTTTACCGAGAACGGAGTCACCTAGTGCAG”, for which the binding signal was 12000 fluorescence intensity (a.u.).

With “CCGTTTTTCATGTCAGCTTGCCGCCCTAGAGGTGGGCGGCCGGAGTCACCTAGTGCAG”, the binding signal was 13800 fluorescence intensity (a.u.).

With “AATCAAATGCACATCATCAGTCATCACGTATTCACTTACACGGAGTCACCTAGTGCAG”, the binding signal was 8230 fluorescence intensity (a.u.).

Consider “TGCACTCTGATCCGTTCGATTTTGCAGGGGAATTATCTGTCGGAGTCACCTAGTGCAG”, for which the binding signal is 10600 fluorescence intensity (a.u.).

With “TGATCCCAGGTAGTATAATTATCTTGAATACTTGATTTTACGGAGTCACCTAGTGCAG”, the binding signal is 8400 fluorescence intensity (a.u.).

As to “CTCTCTCTCTCTTTGCACTACATTCTTGAATTCACAACCTCGGAGTCACCTAGTGCAG”, the binding signal was 8840 fluorescence intensity (a.u.).

Consider “GTAAATTTGTTCTTGCTTTTCTACACTTTTTTTTTTGAACCGGAGTCACCTAGTGCAG”, for which the binding signal was 9140 fluorescence intensity (a.u.).

Regarding “TTGGGGTGGGGATAAGGCCGGTACCGGAGGCATGCCACATCGGAGTCACCTAGTGCAG”, the binding signal is 8190 fluorescence intensity (a.u.).

With “TTTTTTCTTTTTTTTTTTGTTTTTTCTCGCCTTTTTTTCCCGGAGTCACCTAGTGCAG”, the binding signal was 11900 fluorescence intensity (a.u.).

As for “AGGGTTTGATGGGAGATGGATGTGTGGTGATGGCCTAGGACGGAGTCACCTAGTGCAG”, the binding signal is 8180 fluorescence intensity (a.u.).

Turning to “GTCATTTTAGCACTTCCCATGTTTATATTAATATTAATGACGGAGTCACCTAGTGCAG”, the binding signal is 10500 fluorescence intensity (a.u.).

“CTATTCGATTCCTAATTACTTTCTTTCTTGCATTATATACCGGAGTCACCTAGTGCAG”: the binding signal is 10100 fluorescence intensity (a.u.).

Consider “AGCCACCATATCAAGCTGCCACCGTCACCTCCCTTGCCAGCGGAGTCACCTAGTGCAG”, for which the binding signal is 9360 fluorescence intensity (a.u.).

For “ATTAGTATTTGTTTGTTGGTTGGCACTTACGGAGTTCTACCGGAGTCACCTAGTGCAG”, the binding signal was 11000 fluorescence intensity (a.u.).

Regarding “AGCTGCCAGTAGCTCCCAAAGCATACCCTACATCTGCATTCGGAGTCACCTAGTGCAG”, the binding signal was 8240 fluorescence intensity (a.u.).

Consider “TCTGTGGGTTAGGGATGGTTATGTCTTATATTTTGGAATGCGGAGTCACCTAGTGCAG”, for which the binding signal is 9480 fluorescence intensity (a.u.).

For the sequence “GTTGTTTCCACGGCCTTTTCTGCTCTTTTTTTCTTCAGCCCGGAGTCACCTAGTGCAG”, the binding signal was 10700 fluorescence intensity (a.u.).

Regarding “TATCTGTGAGAGTGTGACTGTGAATCTGTGATGCTATTTTCGGAGTCACCTAGTGCAG”, the binding signal is 8480 fluorescence intensity (a.u.).

As for “AAGTTACTTCCTTTTTGTCTTAAGTTACTTCTATAATATACGGAGTCACCTAGTGCAG”, the binding signal was 8490 fluorescence intensity (a.u.).
